Data reported in US20110117206A1, “PHOSPHOPEPTIDES AND USE OF THE SAME” (PLANT BIOSCIENCE LIMITED, priority 2008, published 2011).
Some of these results come from one statement about several compounds together. Some ranges recur; such a range may be that of the whole group of compounds.

Experiment: SAXS and structural model of calcium phosphate nanoclusters
Format: physicochemical
Conditions: SAXS, urea/urease method, pH 7.0
Protocol: For the OPN 1-149 nanocluster, a description of the peptide segment distribution around the core was considered which is more explicit than that provided by the core-shell model. The simplest block copolymer micelle model has been used in which a corona is formed by Gaussian chains attached by one end to a uniform spherical core. The nanoclusters were prepared either on the SAXS station and measured immediately or were prepared 2 days previously to allow the system to come to equilibrium. The sample was then stored at room temperature and remeasured 5 months later during a later allocation of beamtime. Preliminary experiments with nanoclusters prepared with the OPNmix sample established that the scattering was independent of concentration below a peptide concentration of 7 mg ml^−1. Accordingly, all measurements were made after dilution to 5 mg ml^−1 with the dilution buffer where, effectively, S(q)=1. The experimental SAXS results on the matured, equilibrium nanocluster were fitted to a polydisperse copolymer micelle model (Pedersen, J. S. & Gerstenberg, M. C. (1996). Scattering form factor of block copolymer micelles. Macromolecules 29, 1363-1365) using equation (23) with either a log-normal distribution or equation (15) in the ideal solution approximation. In addition, the particles were characterised by dynamic light scattering. The intensity averaged diffusion coefficient, D, was determined with a Malvern Zetasizer Nano instrument.
The results of the SAXS measurements on nanocluster sub-samples measured as a function of time after the addition of the urease are summarised in FIGS. 6a and 6b. […] According to the calculated degree of reaction of the phosphate centres and to the analysis of the correlation function given by the dynamic light scattering studies, the equilibrium state has a significant excess of free peptide, the scattering from which, although negligible at low q, has to be taken account of in modelling the SAXS at higher q. […]

| Substance | time for nanoclusters to achieve equilibrium size |
| --- | --- |
| CK2-S-6H: recombinant His-tagged phosphopeptide MRELEELNVPGADDpSpSpSDDDpSDDDDRINKKIEDPNSpSSVDKLAAALEHHHHHH (MRELEELNVPGADDSSSDDDSDDDDRINKKIEDPNSSSVDKLAAALEHHHHHH; phosphoserines; His tag; CK2-S-6H) | 1 to 2 days |
| CK2-S: recombinant phosphopeptide ELEELNVPGADDpSpSpSDDDpSDDDDRINKK (ELEELNVPGADDSSSDDDSDDDDRINKK; phosphoserines; CK2-S) | 1 to 2 days |
| CK2-SS: recombinant phosphopeptide ELEELNVPGADDpSpSpSpSDDDDDDD RINKK (ELEELNVPGADDSSSSDDDDDDDRINKK; phosphoserines; CK2-SS) | 1 to 2 days |
